Measurements taken from paper PMC11321995.
Where two headings read alike, the source gives them in different places. No constants are given. Whether binding was seen depends on the method and setting. In cells and extracts the contact can be indirect. These calls come from enrichment with a bait or labelling near it, and not all partners need be listed.

By UniProt entry, the sequences of proteins in these tests, tags left out.
UniProt P32243: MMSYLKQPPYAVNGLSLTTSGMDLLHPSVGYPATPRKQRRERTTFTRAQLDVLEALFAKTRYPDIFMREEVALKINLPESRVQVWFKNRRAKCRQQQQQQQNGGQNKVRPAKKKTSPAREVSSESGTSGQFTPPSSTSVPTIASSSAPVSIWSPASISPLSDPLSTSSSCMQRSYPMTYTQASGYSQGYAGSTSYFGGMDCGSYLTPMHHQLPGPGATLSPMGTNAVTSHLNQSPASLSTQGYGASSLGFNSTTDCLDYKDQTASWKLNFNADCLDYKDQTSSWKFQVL
UniProt Q16650: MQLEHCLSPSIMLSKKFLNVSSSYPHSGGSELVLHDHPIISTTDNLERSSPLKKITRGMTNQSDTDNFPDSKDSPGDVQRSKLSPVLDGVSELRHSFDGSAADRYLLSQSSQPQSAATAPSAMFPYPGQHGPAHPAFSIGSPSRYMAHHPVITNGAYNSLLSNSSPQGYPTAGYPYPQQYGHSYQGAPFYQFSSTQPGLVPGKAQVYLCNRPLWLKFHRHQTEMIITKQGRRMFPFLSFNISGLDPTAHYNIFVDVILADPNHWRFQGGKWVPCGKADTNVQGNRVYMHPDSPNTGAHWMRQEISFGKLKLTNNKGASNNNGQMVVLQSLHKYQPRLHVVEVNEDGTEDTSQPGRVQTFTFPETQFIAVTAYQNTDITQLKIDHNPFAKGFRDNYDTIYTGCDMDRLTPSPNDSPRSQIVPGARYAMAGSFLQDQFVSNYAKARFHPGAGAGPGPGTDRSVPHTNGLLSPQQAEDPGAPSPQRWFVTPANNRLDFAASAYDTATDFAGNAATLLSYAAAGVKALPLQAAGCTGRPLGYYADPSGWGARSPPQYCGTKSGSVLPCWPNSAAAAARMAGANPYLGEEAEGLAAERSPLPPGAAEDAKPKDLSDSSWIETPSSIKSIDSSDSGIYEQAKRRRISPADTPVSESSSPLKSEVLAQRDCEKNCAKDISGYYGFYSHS

B1: heterogeneous nuclear ribonucleoprotein M (HNRNPM) (protein, UniProt P52272 1-730)
chain: MAAGVEAAAEVAATEIKMEEESGAPGVPSGNGAPGPKGEGERPAQNEKRKEKNIKRGGNRFEPYANPTKRYRAFITNIPFDVKWQSLKDLVKEKVGEVTYVELLMDAEGKSRGCAVVEFKMEESMKKAAEVLNKHSLSGRPLKVKEDPDGEHARRAMQKVMATTGGMGMGPGGPGMITIPPSILNNPNIPNEIIHALQAGRLGSTVFVANLDYKVGWKKLKEVFSMAGVVVRADILEDKDGKSRGIGTVTFEQSIEAVQAISMFNGQLLFDRPMHVKMDERALPKGDFFPPERPQQLPHGLGGIGMGLGPGGQPIDANHLNKGIGMGNIGPAGMGMEGIGFGINKMGGMEGPFGGGMENMGRFGSGMNMGRINEILSNALKRGEIIAKQGGGGGGGSVPGIERMGPGIDRLGGAGMERMGAGLGHGMDRVGSEIERMGLVMDRMGSVERMGSGIERMGPLGLDHMASSIERMGQTMERIGSGVERMGAGMGFGLERMAAPIDRVGQTIERMGSGVERMGPAIERMGLSMERMVPAGMGAGLERMGPVMDRMATGLERMGANNLERMGLERMGANSLERMGLERMGANSLERMGPAMGPALGAGIERMGLAMGGGGGASFDRAIEMERGNFGGSFAGSFGGAGGHAPGVARKACQIFVRNLPFDFTWKMLKDKFNECGHVLYADIKMENGKSKGCGVVKFESPEVAERACRMMNGMKLSGREIDVRIDRNA

Tests used:
[1] = target: 3xHA-TurboID-OTX2 fusion protein (human) (UniProt P32243); assay: proximity labelling; TurboID: 3xHA-TurboID-OTX2 transfected into HDMB03 tumourspheres, 72 h, 500 μM biotin for 15 min, RIPA lysis, streptavidin–sepharose, mass spectrometry, SAINTexpress against TurboID control
[2] = target: 3xHA-TurboID-OTX2 fusion protein (human) (UniProt P32243); assay: as above; remark: listed apart in the source

| Molecule | binding [1] | binding [2] |
| --- | --- | --- |
| T-box brain transcription factor 1 (from UniProt Q16650 1-682) | binds |  |
| B1 |  | binds |
